Experimental data: article PMC6050272
Results are given in words; binding and its absence hold for the method and conditions named. In cells and extracts the contact can be indirect. Some results given as binding are weak or reduced against the parent protein; the word gives no strength. For part of these data: Tags and fused reporters may be left off the sequences shown.

Assays:
[1] = target: T1, STING, endogenous in mouse cells (mouse (endogenous in MEFs and BMDMs)) (UniProt Q3TBT3); test: co-IP; endogenous proteins in WT and Nik-/- BMDMs transfected with B-DNA (2 μg/mL) for the indicated times, immunoprecipitated for STING; NP-40 lysis buffer, washes with 250 mM NaCl; immunoblot
T1 sequence: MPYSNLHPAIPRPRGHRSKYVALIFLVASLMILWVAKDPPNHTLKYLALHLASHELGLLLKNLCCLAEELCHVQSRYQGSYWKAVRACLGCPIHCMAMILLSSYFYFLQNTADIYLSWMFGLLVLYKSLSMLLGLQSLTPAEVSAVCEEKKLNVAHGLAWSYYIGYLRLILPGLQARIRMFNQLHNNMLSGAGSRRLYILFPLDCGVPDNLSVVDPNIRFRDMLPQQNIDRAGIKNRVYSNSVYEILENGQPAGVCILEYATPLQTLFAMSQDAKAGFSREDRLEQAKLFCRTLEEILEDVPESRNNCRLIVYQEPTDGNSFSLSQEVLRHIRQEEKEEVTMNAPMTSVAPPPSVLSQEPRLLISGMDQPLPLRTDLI

[2] = target: T1, STING, endogenous in mouse cells (mouse (endogenous in MEFs and BMDMs)); test: co-IP; endogenous proteins in MEF cells transfected with B-DNA (2 μg/mL) for the indicated times (Fig. 3b: immunoprecipitated for STING; Fig. 4h: pretreated with DMSO or SMAC mimetic 1 μg/mL for 16 h); NP-40 lysis buffer, washes with 250 mM NaCl; immunoblot
[3] = target: stimulator of interferon genes (STING), epitope-tagged (HA-STING; Myc-STING), Q86WV6; test: co-IP; epitope-tagged proteins co-transfected in HEK 293T cells; NP-40 lysis buffer (50 mM Tris-Cl pH 7.4, 150 mM NaCl, 1 mM EDTA, 1% NP-40); antibody overnight at 4 °C, protein A agarose; washes with NP-40 lysis buffer containing 250 mM NaCl; immunoblot; in some panels with or without co-expressed NIK; details: remark: other sources report otherwise

| Binder | binding [1] | binding [2] | binding [3] |
| --- | --- | --- | --- |
| IRF3, endogenous in mouse cells (protein, UniProt P70671 1-419) METPKPRILPWLVSQLDLGQLEGVAWLDESRTRFRIPWKHGLRQDAQMADFGIFQAWAEASGAYTPGKDKPDVSTWKRNFRSALNRKEVLRLAADNSKDPYDPHKVYEFVTPGARDFVHLGASPDTNGKSSLPHSQENLPKLFDGLILGPLKDEGSSDLAIVSDPSQQLPSPNVNNFLNPAPQENPLKQLLAEEQWEFEVTAFYRGRQVFQQTLFCPGGLRLVGSTADMTLPWQPVTLPDPEGFLTDKLVKEYVGQVLKGLGNGLALWQAGQCLWAQRLGHSHAFWALGEELLPDSGRGPDGEVHKDKDGAVFDLRPFVADLIAFMEGSGHSPRYTLWFCMGEMWPQDQPWVKRLVMVKVVPTCLKELLEMAREGGASSLKTVDLHISNSQPISLTSDQYKAYLQDLVEDMDFQATGNI | binds | binds | – |
| interferon regulatory factor 3 (IRF3), epitope-tagged (HA-IRF3; Flag-IRF3), Q14653 1-427 (protein) MGTPKPRILPWLVSQLDLGQLEGVAWVNKSRTRFRIPWKHGLRQDAQQEDFGIFQAWAEATGAYVPGRDKPDLPTWKRNFRSALNRKEGLRLAEDRSKDPHDPHKIYEFVNSGVGDFSQPDTSPDTNGGGSTSDTQEDILDELLGNMVLAPLPDPGPPSLAVAPEPCPQPLRSPSLDNPTPFPNLGPSENPLKRLLVPGEEWEFEVTAFYRGRQVFQQTISCPEGLRLVGSEVGDRTLPGWPVTLPDPGMSLTDRGVMSYVRHVLSCLGGGLALWRAGQWLWAQRLGHCHTYWAVSEELLPNSGHGPDGEVPKDKEGGVFDLGPFIVDLITFTEGSGRSPRYALWFCVGESWPQDQPWTKRLVMVKVVPTCLRALVEMARVGGASSLENTVDLHISNSHPLSLTSDQYKAYLQDLVEGMDFQGPGES | – | – | binds |
